Reference: doi:10.64898/2025.12.13.694125
No constants are given. Whether binding was seen depends on the method and setting. In cells and extracts the contact can be indirect. Some binding calls cover weakened binding; strength is not graded here.

By UniProt entry, the sequences of proteins in these tests, tags left out. Residues count along the entry.
UniProt Q03265, residues 44-553: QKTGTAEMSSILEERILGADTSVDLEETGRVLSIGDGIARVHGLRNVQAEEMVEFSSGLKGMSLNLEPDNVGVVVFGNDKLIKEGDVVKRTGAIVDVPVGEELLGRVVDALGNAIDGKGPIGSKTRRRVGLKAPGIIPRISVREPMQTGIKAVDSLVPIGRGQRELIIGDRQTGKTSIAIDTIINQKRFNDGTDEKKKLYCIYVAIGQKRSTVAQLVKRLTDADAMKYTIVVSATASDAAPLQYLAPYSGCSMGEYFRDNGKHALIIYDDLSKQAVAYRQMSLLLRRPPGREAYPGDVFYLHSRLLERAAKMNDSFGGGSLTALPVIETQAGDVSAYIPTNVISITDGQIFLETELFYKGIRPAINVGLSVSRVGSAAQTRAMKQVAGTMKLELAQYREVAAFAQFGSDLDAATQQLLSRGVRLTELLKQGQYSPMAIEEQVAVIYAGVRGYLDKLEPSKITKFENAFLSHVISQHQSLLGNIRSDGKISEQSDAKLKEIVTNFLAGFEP
UniProt P56480, residues 47-529: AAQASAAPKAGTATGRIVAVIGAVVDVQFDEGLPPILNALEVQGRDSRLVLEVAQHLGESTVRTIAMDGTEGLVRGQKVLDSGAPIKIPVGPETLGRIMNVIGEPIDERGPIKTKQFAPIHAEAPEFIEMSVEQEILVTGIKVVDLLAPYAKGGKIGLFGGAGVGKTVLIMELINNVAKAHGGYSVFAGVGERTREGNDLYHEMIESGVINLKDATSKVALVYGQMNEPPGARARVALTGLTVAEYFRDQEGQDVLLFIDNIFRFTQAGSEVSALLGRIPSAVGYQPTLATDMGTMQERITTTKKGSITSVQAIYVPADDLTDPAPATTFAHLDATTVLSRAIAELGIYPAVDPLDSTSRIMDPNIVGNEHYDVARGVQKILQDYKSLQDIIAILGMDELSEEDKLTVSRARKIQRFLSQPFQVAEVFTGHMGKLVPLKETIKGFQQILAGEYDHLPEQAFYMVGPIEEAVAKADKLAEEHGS
UniProt Q8K2B3, residues 43-664: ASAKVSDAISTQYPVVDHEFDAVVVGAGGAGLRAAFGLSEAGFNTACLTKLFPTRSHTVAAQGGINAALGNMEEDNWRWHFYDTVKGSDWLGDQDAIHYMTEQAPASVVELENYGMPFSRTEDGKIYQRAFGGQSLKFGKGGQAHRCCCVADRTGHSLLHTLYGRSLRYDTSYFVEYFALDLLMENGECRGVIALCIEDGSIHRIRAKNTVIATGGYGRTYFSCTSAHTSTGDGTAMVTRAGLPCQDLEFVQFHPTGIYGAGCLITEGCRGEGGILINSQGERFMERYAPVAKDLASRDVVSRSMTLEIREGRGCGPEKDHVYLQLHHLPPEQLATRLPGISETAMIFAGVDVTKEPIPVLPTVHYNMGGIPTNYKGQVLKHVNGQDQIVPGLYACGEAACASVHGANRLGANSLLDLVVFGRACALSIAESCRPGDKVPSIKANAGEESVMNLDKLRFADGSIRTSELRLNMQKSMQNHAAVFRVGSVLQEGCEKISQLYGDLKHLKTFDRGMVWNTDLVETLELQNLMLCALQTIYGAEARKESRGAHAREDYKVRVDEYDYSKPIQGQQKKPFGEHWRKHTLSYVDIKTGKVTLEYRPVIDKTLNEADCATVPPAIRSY

Tests used:
Test in all cases: cross-linking
[1] = target: ATP synthase F1 catalytic head α subunit (ATPA) (mouse (endogenous in heart mitochondria)) (UniProt Q03265)
[2] = target: ATP synthase F1 catalytic head β subunit (ATPB) (mouse (endogenous in heart mitochondria)) (UniProt P56480)
[3] = target: T1, malate dehydrogenase (MDHM) (mouse (endogenous in heart mitochondria)) (UniProt P08249)
T1 sequence: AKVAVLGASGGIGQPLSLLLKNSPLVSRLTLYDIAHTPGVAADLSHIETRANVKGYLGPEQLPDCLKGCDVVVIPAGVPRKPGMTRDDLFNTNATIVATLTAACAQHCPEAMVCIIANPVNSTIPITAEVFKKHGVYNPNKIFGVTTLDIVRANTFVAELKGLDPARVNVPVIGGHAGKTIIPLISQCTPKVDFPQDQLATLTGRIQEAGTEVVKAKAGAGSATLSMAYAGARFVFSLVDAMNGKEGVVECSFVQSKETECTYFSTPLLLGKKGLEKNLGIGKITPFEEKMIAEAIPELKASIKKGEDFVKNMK

[4] = target: T2, ATP synthase subunit ATPG (mouse (endogenous in heart mitochondria)) (UniProt Q91VR2)
T2 sequence: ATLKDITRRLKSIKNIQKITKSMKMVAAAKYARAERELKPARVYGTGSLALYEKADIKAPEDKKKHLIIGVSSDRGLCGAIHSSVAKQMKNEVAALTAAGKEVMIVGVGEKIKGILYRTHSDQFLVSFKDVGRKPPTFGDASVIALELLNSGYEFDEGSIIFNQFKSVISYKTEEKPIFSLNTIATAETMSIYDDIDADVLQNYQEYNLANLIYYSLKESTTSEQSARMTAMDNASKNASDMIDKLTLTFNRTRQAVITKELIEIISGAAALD

[5] = target: SDHA (mouse (endogenous in heart mitochondria)) (UniProt Q8K2B3)
[6] = target: ATPase inhibitory factor 1 (ATIF1) (mouse (endogenous in heart mitochondria)) (UniProt O35143)
[7] = target: T3, citrate synthase (CISY) (mouse (endogenous in heart mitochondria)) (UniProt Q9CZU6)
T3 sequence: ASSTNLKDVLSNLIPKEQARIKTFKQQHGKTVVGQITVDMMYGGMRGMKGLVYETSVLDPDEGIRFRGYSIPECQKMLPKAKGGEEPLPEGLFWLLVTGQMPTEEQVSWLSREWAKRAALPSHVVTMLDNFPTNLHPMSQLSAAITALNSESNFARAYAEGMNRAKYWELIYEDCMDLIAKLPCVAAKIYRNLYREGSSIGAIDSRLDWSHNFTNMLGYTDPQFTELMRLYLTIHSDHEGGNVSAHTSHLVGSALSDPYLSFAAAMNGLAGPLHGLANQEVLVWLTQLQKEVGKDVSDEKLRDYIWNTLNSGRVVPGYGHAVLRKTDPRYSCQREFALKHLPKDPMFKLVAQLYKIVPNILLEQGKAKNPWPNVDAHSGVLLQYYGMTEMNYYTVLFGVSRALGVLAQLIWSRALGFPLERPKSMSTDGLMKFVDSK

[8] = target: T4, peripheral stalk subunit ATP5J (mouse (endogenous in heart mitochondria)) (UniProt P97450)
T4 sequence: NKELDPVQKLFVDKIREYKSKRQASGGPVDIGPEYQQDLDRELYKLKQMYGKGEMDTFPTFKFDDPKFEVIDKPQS

Measured: binding

B1: malate dehydrogenase (MDHM) (enzyme, UniProt P08249 25-338)
chain: T1 sequence
binds: [1] | [2]

B2: ATPase inhibitory factor 1 (ATIF1) (protein, UniProt O35143 26-106)
chain: VSDSSDSMDTGAGSIREAGGAFGKREKAEEDRYFREKTKEQLAALRKHHEDEIDHHSKEIERLQKQIERHKKKIQQLKNNH
not listed: [1] | [8]
binds: all other assays above

B3: FO membrane subunit ATP8 (protein, UniProt P03930 1-67)
chain: MPQLDTSTWFITIISSMITLFILFQLKVSSQTFPLAPSPKSLTTMKVKTPWELKWTKIYLPHSLPQQ
binds: [8]
